± gives the standard deviation of the averaged measurements. The entries are a selection whose mix differs from that of the whole data set. Most entries show no effect beyond the scatter of the controls.
Compound: Nc1ncnc2c1ncn2[C@@H]1O[C@H](COP(=O)(O)OP(=O)(O)OP(=O)(O)O)[C@@H](O)[C@H]1O [adenosine triphosphate]
Assay: NP40-soluble protein abundance relative to vehicle (solubility fold change) (ratio); higher = more soluble protein in presence of ATP
Method in brief: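 Jurkat crude lysate prepared with a Dounce homogeniser was treated at eight concentrations spanning 0.1 to 10 mM, 10 min at room temperature then 3 min at 37 °C. Solubilisation with 0.8% NP40 and benzonase and ultracentrifugation preceded TMT labelling of the supernatant for LC-MS/MS. Fold change against the detergent-processed vehicle was determined per replicate from vsn-normalised intensities, across three independent experiments.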

Chains of the proteins cited; added tags and fusions are not shown. Lines headed by an entry give the natural chain unless they say otherwise; changes in a name come on top.
UniProt Q9UK76: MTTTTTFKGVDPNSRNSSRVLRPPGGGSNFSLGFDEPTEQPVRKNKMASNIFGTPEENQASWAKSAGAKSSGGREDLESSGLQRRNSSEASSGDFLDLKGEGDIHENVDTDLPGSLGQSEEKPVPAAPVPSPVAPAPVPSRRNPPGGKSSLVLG
UniProt Q9ULD0: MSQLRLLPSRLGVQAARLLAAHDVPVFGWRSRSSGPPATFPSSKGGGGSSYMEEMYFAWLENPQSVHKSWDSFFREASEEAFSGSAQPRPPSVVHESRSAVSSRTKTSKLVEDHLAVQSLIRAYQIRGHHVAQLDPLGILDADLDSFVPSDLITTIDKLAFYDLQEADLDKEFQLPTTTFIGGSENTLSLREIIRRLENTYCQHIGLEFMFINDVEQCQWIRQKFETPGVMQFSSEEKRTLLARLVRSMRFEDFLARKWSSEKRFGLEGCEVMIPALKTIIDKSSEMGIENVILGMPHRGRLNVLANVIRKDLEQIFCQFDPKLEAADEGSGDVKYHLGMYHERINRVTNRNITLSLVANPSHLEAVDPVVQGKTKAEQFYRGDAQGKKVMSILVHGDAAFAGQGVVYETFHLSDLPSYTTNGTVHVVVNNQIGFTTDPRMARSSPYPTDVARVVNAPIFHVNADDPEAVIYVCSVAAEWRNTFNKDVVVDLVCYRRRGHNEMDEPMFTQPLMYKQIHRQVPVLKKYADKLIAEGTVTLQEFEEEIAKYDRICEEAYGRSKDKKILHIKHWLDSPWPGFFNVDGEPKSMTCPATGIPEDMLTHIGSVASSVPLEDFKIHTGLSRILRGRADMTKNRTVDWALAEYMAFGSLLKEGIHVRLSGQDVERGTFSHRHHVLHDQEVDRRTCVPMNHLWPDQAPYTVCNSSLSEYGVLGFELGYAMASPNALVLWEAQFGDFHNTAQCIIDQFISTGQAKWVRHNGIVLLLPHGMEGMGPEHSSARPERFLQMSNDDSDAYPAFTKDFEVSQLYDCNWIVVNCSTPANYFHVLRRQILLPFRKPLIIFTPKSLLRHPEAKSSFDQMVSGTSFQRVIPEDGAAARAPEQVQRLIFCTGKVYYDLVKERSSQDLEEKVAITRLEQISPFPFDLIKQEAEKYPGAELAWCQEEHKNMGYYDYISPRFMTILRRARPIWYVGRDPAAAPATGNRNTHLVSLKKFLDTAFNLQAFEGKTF
UniProt Q9UL63, whole entry: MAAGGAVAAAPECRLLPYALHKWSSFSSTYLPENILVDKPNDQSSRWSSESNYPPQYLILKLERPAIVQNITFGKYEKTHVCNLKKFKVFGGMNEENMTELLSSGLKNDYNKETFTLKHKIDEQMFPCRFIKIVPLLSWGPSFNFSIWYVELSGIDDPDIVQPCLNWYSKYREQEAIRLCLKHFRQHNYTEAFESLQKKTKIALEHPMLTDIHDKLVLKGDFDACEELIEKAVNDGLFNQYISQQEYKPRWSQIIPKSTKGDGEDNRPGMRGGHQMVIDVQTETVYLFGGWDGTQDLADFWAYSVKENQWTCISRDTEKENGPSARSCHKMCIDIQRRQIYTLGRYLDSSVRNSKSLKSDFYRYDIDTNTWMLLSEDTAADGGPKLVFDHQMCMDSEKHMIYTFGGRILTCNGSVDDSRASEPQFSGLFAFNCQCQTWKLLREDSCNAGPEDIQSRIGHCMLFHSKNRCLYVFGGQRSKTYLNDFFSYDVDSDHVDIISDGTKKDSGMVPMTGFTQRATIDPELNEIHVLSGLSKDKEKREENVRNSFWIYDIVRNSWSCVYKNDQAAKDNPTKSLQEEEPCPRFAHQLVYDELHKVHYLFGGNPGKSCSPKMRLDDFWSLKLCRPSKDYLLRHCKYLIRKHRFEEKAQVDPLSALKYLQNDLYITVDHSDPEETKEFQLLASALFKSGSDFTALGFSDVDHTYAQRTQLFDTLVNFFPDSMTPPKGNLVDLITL
UniProt Q9UHI6: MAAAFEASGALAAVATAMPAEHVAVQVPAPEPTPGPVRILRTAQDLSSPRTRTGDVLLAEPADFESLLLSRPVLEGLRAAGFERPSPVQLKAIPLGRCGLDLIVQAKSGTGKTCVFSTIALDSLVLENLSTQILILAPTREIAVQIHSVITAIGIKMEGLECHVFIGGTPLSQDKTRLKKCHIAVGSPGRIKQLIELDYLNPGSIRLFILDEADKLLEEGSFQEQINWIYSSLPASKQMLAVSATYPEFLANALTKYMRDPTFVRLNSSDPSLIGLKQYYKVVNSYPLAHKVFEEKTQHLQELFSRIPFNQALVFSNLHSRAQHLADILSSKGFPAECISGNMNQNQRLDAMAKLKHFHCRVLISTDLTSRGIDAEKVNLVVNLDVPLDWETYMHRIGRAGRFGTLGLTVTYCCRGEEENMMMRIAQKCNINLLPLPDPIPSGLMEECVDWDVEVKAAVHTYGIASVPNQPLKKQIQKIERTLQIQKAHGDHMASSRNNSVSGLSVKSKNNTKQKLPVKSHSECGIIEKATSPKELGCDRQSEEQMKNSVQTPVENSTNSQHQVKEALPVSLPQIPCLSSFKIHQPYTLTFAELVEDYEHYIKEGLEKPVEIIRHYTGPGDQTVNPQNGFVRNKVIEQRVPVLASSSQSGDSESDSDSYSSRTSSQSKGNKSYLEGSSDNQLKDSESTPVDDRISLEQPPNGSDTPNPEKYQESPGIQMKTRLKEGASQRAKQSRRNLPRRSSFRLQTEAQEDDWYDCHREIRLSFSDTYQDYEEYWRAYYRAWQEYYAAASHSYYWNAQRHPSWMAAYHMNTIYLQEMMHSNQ
UniProt Q9UHN1: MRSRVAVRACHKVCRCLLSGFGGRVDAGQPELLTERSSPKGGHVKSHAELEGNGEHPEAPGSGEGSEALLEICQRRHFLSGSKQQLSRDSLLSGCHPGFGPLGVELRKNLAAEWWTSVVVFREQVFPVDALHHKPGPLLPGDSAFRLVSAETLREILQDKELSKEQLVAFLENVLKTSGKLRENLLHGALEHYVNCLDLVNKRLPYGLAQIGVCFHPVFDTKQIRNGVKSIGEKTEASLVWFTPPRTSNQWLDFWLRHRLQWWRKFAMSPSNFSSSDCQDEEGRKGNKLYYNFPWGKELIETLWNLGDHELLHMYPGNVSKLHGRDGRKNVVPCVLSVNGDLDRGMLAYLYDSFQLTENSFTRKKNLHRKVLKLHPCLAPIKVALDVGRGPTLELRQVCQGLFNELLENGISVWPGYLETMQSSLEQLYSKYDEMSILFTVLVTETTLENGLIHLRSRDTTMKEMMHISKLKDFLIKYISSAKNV
UniProt Q9UM22: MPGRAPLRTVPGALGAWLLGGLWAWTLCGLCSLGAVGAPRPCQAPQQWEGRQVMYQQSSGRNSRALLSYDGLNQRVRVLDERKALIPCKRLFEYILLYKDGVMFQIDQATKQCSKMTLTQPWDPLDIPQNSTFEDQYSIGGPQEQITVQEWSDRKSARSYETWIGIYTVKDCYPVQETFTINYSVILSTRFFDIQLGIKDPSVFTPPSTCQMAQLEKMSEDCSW
UniProt Q9Y295: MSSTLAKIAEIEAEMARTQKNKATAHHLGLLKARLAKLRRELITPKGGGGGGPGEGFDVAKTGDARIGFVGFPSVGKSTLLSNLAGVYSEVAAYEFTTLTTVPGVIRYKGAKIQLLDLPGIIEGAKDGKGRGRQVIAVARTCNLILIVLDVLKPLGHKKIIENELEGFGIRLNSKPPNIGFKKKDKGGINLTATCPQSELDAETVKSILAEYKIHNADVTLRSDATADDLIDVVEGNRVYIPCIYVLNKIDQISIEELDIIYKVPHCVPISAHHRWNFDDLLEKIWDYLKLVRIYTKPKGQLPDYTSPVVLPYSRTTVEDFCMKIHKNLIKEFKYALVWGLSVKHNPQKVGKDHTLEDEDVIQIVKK
UniProt Q9UKA9: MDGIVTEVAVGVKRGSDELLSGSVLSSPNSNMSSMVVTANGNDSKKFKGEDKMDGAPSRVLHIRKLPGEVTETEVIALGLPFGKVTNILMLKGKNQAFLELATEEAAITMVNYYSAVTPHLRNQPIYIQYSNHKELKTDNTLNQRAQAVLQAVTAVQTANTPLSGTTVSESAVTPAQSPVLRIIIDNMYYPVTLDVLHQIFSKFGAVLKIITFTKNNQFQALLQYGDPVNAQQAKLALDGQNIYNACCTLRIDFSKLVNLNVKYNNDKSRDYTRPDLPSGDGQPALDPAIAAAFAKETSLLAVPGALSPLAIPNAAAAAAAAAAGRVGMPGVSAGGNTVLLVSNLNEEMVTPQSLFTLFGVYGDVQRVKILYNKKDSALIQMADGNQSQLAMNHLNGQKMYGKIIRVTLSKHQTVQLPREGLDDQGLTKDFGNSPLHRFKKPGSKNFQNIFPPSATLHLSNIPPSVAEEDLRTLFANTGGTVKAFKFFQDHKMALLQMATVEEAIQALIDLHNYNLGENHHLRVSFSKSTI
UniProt Q9UGQ2: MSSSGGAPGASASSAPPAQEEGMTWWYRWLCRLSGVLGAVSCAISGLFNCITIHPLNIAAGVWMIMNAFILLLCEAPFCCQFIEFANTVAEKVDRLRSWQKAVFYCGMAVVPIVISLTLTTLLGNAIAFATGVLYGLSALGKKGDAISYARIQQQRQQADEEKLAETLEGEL
UniProt Q9ULM3: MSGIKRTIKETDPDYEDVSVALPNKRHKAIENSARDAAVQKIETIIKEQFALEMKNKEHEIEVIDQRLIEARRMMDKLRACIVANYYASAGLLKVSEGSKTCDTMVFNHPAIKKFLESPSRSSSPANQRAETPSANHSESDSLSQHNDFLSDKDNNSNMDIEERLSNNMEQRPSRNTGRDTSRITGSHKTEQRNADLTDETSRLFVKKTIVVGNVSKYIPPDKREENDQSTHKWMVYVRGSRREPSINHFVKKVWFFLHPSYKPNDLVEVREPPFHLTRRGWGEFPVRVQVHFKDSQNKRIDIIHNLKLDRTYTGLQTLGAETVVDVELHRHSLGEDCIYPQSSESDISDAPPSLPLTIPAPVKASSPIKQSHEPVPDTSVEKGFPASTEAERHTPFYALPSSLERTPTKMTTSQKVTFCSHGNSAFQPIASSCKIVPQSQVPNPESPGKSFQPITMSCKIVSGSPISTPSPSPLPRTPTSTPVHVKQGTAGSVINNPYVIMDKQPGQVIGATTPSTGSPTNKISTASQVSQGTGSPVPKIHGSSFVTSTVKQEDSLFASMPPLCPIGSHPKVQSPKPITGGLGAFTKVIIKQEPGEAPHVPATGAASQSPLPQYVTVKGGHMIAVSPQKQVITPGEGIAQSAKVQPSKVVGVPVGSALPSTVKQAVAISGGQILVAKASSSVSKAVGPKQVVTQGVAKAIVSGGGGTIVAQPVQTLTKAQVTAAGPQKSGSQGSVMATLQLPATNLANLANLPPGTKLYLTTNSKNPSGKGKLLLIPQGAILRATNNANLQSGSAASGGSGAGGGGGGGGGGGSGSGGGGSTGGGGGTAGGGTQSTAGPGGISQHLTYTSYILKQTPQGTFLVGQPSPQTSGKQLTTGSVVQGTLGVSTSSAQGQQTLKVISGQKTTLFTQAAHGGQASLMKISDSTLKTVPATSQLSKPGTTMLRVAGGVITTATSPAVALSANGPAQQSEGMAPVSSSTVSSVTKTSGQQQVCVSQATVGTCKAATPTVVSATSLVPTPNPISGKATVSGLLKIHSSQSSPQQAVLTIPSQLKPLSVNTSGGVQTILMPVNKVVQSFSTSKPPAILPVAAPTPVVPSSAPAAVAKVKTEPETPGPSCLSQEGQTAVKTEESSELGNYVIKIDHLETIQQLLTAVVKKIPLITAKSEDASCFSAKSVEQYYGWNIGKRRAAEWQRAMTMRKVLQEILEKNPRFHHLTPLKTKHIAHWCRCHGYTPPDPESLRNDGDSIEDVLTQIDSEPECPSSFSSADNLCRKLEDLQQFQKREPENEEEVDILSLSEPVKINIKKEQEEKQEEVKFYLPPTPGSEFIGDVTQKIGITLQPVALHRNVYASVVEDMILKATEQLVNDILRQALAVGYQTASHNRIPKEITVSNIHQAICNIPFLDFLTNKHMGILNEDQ
UniProt Q9UBT2: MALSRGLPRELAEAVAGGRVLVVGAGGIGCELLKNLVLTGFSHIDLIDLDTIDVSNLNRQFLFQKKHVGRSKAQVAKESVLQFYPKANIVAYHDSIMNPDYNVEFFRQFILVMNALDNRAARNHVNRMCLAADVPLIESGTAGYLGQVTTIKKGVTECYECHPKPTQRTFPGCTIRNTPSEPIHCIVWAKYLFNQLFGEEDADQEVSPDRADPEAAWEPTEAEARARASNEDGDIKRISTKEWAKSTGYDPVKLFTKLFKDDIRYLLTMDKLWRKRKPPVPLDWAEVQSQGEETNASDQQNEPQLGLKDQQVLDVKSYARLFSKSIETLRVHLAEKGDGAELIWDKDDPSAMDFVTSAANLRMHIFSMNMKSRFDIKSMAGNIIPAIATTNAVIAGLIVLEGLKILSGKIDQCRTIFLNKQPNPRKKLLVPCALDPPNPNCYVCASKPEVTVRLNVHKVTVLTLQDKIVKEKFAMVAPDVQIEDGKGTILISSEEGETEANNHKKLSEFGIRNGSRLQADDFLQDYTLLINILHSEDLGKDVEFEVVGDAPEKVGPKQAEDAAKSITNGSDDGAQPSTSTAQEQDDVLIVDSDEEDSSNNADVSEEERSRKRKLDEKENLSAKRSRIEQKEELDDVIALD

Target	NP40-soluble protein abundance (concentration: 0.1mM)	NP40-soluble protein abundance (concentration: 0.5mM)
FARSA (UniProt Q9Y285)	1.01 ± 0.053	0.987 ± 0.023
TUBE1 (UniProt Q9UJT0)	1.07 ± 0.031	0.976 ± 0.057
UniProt Q9UK76	0.929 ± 0.065	0.909 ± 0.053
ARMCX3 (UniProt Q9UH62)	0.927 ± 0.033	0.893 ± 0.042
NOTCH3 (UniProt Q9UM47)	0.864 ± 0.045	0.85 ± 0.074
TBK1 (UniProt Q9UHD2)	1.04 ± 0.048	1.03 ± 0.06
UniProt Q9ULD0	1.12 ± 0.11	1.1 ± 0.13
TPX2 (UniProt Q9ULW0)	1.01 ± 0.019	1.139 ± 0.011
UniProt Q9P2R3 and related entries	1.04 ± 0.051	1.03 ± 0.059
ANKRD50 (UniProt Q9ULJ7)	1.02 ± 0.067	1.06 ± 0.028
UniProt Q9UJ83 and related entries	1.02 ± 0.071	0.995 ± 0.027
UniProt Q9ULU4 and related entries	0.989 ± 0.038	1.04 ± 0.059
UniProt Q9UNL4 and related entries	1 ± 0.1	1.07 ± 0.035
UniProt Q9UQ13 and related entries	1.01 ± 0.041	1 ± 0.12
DPP7 (UniProt Q9UHL4)	0.986 ± 0.046	0.975 ± 0.048
HECA (UniProt Q9UBI9)	1.05 ± 0.026	1.05 ± 0.21
UniProt Q9UL03 and related entries	1.01 ± 0.053	1.06 ± 0.059
TRMT6 (UniProt Q9UJA5)	1 ± 0.042	1 ± 0.042
UniProt Q9ULX6 and related entries	0.946 ± 0.032	0.981 ± 0.096
UniProt Q9UBS8 and related entries	1.05 ± 0.073	0.994 ± 0.057
XPO7 (UniProt Q9UIA9)	1.02 ± 0.068	0.9952 ± 0.0073
UniProt Q9UJX2 and related entries	1.01 ± 0.032	1.01 ± 0.038
STX8 (UniProt Q9UNK0)	0.908 ± 0.11	0.847 ± 0.13
PPM1H (UniProt Q9ULR3)	1.03 ± 0.063	1.06 ± 0.06

Target	NP40-soluble protein abundance (concentration: 0.1mM)	NP40-soluble protein abundance (concentration: 0.5mM)
PLXNA1 (UniProt Q9UIW2)	1.03 ± 0.062	0.998 ± 0.039
UniProt Q9UL18 and related entries	1.02 ± 0.073	1.06 ± 0.079
UniProt Q9UHQ4 and related entries	1.02 ± 0.076	1 ± 0.063
UniProt Q9UBI1 and related entries	1.04 ± 0.038	0.997 ± 0.052
MRPS33 (UniProt Q9Y291)	0.942 ± 0.22	0.973 ± 0.24
MKLN1 (UniProt Q9UL63)	0.98 ± 0.035	0.944 ± 0.016
DDX20 (UniProt Q9UHI6)	0.956 ± 0.1	0.949 ± 0.09
UniProt Q9Y282 and related entries	1.02 ± 0.03	0.997 ± 0.033
GNPTG (UniProt Q9UJJ9)	0.983 ± 0.12	0.93 ± 0.14
FAF1 (UniProt Q9UNN5)	1.03 ± 0.042	1.03 ± 0.063
UniProt Q9UQ84 and related entries	0.918 ± 0.056	1.025 ± 0.0075
HMGXB4 (UniProt Q9UGU5)	0.954 ± 0.054	1.03 ± 0.028
DNAJB4 (UniProt Q9UDY4)	0.957 ± 0.036	0.897 ± 0.029
CFL2 (UniProt Q9Y281)	0.939 ± 0.034	0.906 ± 0.072
UniProt Q9UBU8-2	1.01 ± 0.036	1.01 ± 0.022
UniProt Q9ULJ3	0.988 ± 0.037	0.997 ± 0.031
UniProt Q9UII2	0.941 ± 0.12	1.02 ± 0.26
POLG2 (UniProt Q9UHN1)	1.02 ± 0.046	0.998 ± 0.022
ZNFX1 (UniProt Q9P2E3)	1.04 ± 0.051	1.03 ± 0.053
UniProt Q9P2A4 and related entries	1 ± 0.021	1.022 ± 0.0087
C19orf53 (UniProt Q9UNZ5)	0.93 ± 0.15	0.984 ± 0.33
STOML2 (UniProt Q9UJZ1)	0.968 ± 0.046	1.01 ± 0.058
EPDR1 (UniProt Q9UM22)	1 ± 0.039	0.997 ± 0.048
SAE1 (UniProt Q9UBE0)	0.994 ± 0.064	1.01 ± 0.044

Target	NP40-soluble protein abundance (concentration: 0.1mM)	NP40-soluble protein abundance (concentration: 0.5mM)
RAB22A (UniProt Q9UL26)	0.962 ± 0.085	1 ± 0.068
UniProt Q9UK61 and related entries	1.03 ± 0.019	1.08 ± 0.045
UniProt Q9UQC2 and related entries	0.932 ± 0.045	0.98 ± 0.094
PLAA (UniProt Q9Y263)	1.02 ± 0.043	1.01 ± 0.011
CPSF2 (UniProt Q9P2I0)	0.991 ± 0.018	1.08 ± 0.04
CCNL1 (UniProt Q9UK58)	1.04 ± 0.034	1.11 ± 0.076
UniProt Q9UPU7 and related entries	1.04 ± 0.023	1.01 ± 0.061
VDAC3 (UniProt Q9Y277)	0.995 ± 0.091	1.04 ± 0.02
UniProt Q9UG22	1.01 ± 0.03	1.031 ± 0.0073
UniProt Q9UNM6 and related entries	0.979 ± 0.038	0.957 ± 0.024
UniProt Q9UN86-2|Q9UN86	1.02 ± 0.022	1.09 ± 0.078
FKBPL (UniProt Q9UIM3)	0.965 ± 0.046	0.938 ± 0.063
CHORDC1 (UniProt Q9UHD1)	1.03 ± 0.091	1.05 ± 0.065
UniProt Q9P260 and related entries	1.01 ± 0.034	1.02 ± 0.041
GRHPR (UniProt Q9UBQ7)	1.03 ± 0.069	1.05 ± 0.055
UniProt Q9P2N6-3	1.03 ± 0.054	1.04 ± 0.11
AASS (UniProt Q9UDR5)	1.06 ± 0.077	1.06 ± 0.067
SMC3 (UniProt Q9UQE7)	1.01 ± 0.041	1.03 ± 0.064
PPIE (UniProt Q9UNP9)	1.006 ± 0.01	1.04 ± 0.023
UniProt Q9UMS0 and related entries	0.924 ± 0.028	0.908 ± 0.12
UBQLN1 (UniProt Q9UMX0)	0.879 ± 0.11	0.851 ± 0.12
DRG1 (UniProt Q9Y295)	1.04 ± 0.061	1.03 ± 0.053
UniProt Q9UK53-2|A0A0C4DFW2|Q9UK53 and related entries	0.99 ± 0.085	1.02 ± 0.073
UniProt Q9UBD5 and related entries	1.07 ± 0.051	1.07 ± 0.061

Target	NP40-soluble protein abundance (concentration: 0.1mM)	NP40-soluble protein abundance (concentration: 0.5mM)
RUVBL1 (UniProt Q9Y265)	1.04 ± 0.014	1.13 ± 0.049
CROT (UniProt Q9UKG9)	1.07 ± 0.15	1.04 ± 0.023
UniProt Q9ULH7-4|Q9ULH7-5	0.978 ± 0.043	1 ± 0.087
RERE (UniProt Q9P2R6)	1.01 ± 0.025	0.996 ± 0.044
PEF1 (UniProt Q9UBV8)	0.834 ± 0.12	0.789 ± 0.19
UniProt Q9UKA9 and related entries	1.01 ± 0.058	1 ± 0.03
UniProt Q9UKT9 and related entries	1.12 ± 0.075	1.13 ± 0.08
UniProt Q9P275 and related entries	0.96 ± 0.011	0.979 ± 0.077
UniProt Q9UM21	1.04 ± 0.062	1.09 ± 0.067
UniProt Q9UI30	0.993 ± 0.12	0.965 ± 0.11
GTF3C4 (UniProt Q9UKN8)	1.02 ± 0.026	1.05 ± 0.035
PSMC3IP (UniProt Q9P2W1)	0.951 ± 0.076	0.935 ± 0.048
SMG5 (UniProt Q9UPR3)	1.07 ± 0.025	0.966 ± 0.012
TFIP11 (UniProt Q9UBB9)	1.02 ± 0.044	1.07 ± 0.045
RBM27 (UniProt Q9P2N5)	1.04 ± 0.018	1.39 ± 0.035
UniProt Q9UKM9 and related entries	0.967 ± 0.056	1.03 ± 0.1
PACSIN3 (UniProt Q9UKS6)	1.02 ± 0.029	1.008 ± 0.0037
KMT2B (UniProt Q9UMN6)	0.987 ± 0.017	0.993 ± 0.051
NENF (UniProt Q9UMX5)	0.946 ± 0.05	0.931 ± 0.065
ZNF219 (UniProt Q9P2Y4)	1.03 ± 0.12	1.07 ± 0.07
INO80 (UniProt Q9ULG1)	1.17 ± 0.099	1.1 ± 0.082
UniProt Q9UGQ2 and related entries	1.03 ± 0.14	1.07 ± 0.011
DIP2B (UniProt Q9P265)	1.02 ± 0.026	1 ± 0.028
UniProt Q9ULK4 and related entries	1.04 ± 0.053	1 ± 0.091

Target	NP40-soluble protein abundance (concentration: 0.1mM)	NP40-soluble protein abundance (concentration: 0.5mM)
WARS2 (UniProt Q9UGM6)	1.01 ± 0.088	1 ± 0.082
UniProt Q9UJK0	0.961 ± 0.085	0.832 ± 0.18
YEATS2 (UniProt Q9ULM3)	0.994 ± 0.031	1.06 ± 0.076
LCMT1 (UniProt Q9UIC8)	1.04 ± 0.063	1.02 ± 0.08
UniProt Q9UBL3 and related entries	1.02 ± 0.017	1.06 ± 0.037
UniProt Q9UJX6 and related entries	1.03 ± 0.045	1.033 ± 0.0063
UniProt Q9UBS9 and related entries	0.987 ± 0.098	0.901 ± 0.046
ZMAT5 (UniProt Q9UDW3)	0.984 ± 0.16	1.07 ± 0.12
SWAP70 (UniProt Q9UH65)	1 ± 0.027	1.01 ± 0.071
ZC3H4 (UniProt Q9UPT8)	0.983 ± 0.021	0.99 ± 0.037
UniProt Q9UDY8 and related entries	1.06 ± 0.014	1.04 ± 0.07
UniProt Q9UPY8 and related entries	0.943 ± 0.087	0.959 ± 0.048
HECTD1 (UniProt Q9ULT8)	1.01 ± 0.015	1 ± 0.042
AFF4 (UniProt Q9UHB7)	1.023 ± 0.0061	1.05 ± 0.065
UniProt Q9UGR2 and related entries	1.03 ± 0.038	1 ± 0.034
UniProt Q9UKZ1	1.02 ± 0.028	1.05 ± 0.024
BCS1L (UniProt Q9Y276)	1.04 ± 0.084	1.03 ± 0.028
ENOPH1 (UniProt Q9UHY7)	1.06 ± 0.043	1.04 ± 0.085
RUVBL2 (UniProt Q9Y230)	1.05 ± 0.015	1.11 ± 0.035
UBA2 (UniProt Q9UBT2)	1 ± 0.041	1.02 ± 0.036
UniProt Q9UEE5	1.05 ± 0.1	1.15 ± 0.1
MRC2 (UniProt Q9UBG0)	0.977 ± 0.057	0.972 ± 0.035
UniProt Q9UHW5 and related entries	1.06 ± 0.092	1.04 ± 0.12
DICER1 (UniProt Q9UPY3)	1.02 ± 0.027	1.02 ± 0.027

An excerpt of these results, comma-delimited:
Target,NP40-soluble protein abundance (concentration: 0.1mM),NP40-soluble protein abundance (concentration: 0.5mM)
HECTD1 (UniProt Q9ULT8),1.01 ± 0.015,1 ± 0.042
AFF4 (UniProt Q9UHB7),1.023 ± 0.0061,1.05 ± 0.065

From the supplement of paper PMC6411743
